Results reported in publication PMC8169952.
No constants are given. Whether binding was seen depends on the method and setting. Binding seen in cells or lysates may run through a third protein. Some binding calls cover weakened binding; strength is not graded here.

The chains behind the UniProt entries cited, without tags or fusion partners. Where a name states a change or a piece, a line headed by the entry shows the natural chain unless it says otherwise.
UniProt O60603: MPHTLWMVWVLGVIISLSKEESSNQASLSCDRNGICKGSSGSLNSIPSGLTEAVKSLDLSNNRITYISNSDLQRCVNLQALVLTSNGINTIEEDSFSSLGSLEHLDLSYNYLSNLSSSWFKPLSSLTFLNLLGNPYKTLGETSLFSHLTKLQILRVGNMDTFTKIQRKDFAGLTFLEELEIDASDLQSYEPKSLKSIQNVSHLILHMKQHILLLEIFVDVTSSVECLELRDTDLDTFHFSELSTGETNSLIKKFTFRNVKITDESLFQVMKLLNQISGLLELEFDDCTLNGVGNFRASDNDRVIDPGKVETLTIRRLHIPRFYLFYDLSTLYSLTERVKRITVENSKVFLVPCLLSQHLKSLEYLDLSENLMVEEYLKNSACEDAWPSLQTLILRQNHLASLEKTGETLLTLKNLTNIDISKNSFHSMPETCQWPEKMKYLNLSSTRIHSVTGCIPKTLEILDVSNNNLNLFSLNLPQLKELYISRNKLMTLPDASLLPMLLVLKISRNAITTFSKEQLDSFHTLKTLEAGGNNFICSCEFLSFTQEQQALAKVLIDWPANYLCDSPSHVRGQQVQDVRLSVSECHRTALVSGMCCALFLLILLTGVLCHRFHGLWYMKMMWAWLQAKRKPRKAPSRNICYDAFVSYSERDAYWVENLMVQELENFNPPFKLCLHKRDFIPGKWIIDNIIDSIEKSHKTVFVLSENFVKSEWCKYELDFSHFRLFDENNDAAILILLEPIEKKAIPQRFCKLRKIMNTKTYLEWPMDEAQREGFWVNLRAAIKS

T1: Recombinant Human Apo-SAA1 (serum amyloid A1) (human) (UniProt P0DJI8)
T1 sequence: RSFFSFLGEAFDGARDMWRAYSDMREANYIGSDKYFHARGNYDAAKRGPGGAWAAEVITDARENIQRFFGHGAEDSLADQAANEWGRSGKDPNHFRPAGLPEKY


Experiments:
[1] = molecular target: T1, Recombinant Human Apo-SAA1 (serum amyloid A1) (human); test: co-IP; lysate of rhSAA1-treated LX-2 cells in co-IP buffer; precipitated with anti-SAA1 (sc-52211) or anti-TLR2 (sc-166900) overnight at 4 °C, protein A/G magnetic beads 1 hour at RT; read by silver staining and western blot; IgG as negative control
[2] = molecular target: Toll-like receptor 2 (human (endogenous in LX-2)) (UniProt O60603); test: as above

| Molecule | binding [1] | binding [2] |
| --- | --- | --- |
| Toll-like receptor 2 (from UniProt O60603 21-784) | binds |  |
| Recombinant Human Apo-SAA1 (serum amyloid A1) (ligand, UniProt P0DJI8 19-122) RSFFSFLGEAFDGARDMWRAYSDMREANYIGSDKYFHARGNYDAAKRGPGGAWAAEVITDARENIQRFFGHGAEDSLADQAANEWGRSGKDPNHFRPAGLPEKY |  | binds |
